Assay results taken from publication PMC7819943, “Rice protein-binding microarrays: a tool to detect cis-acting elements near promoter regions in rice”.
The other results are listed elsewhere or left out.

molecular target: T1, OsSMF1 (Oryza sativa, UniProt Q6ZLB0 1-436); test: protein-binding microarray (RPBM); PBS, 2% BSA, 51.3 ng/ul salmon testes DNA, 50 uM zinc acetate, 200 nM TF, 25 C, 1 h; high values mean tight binding; conditions: protein: recombinant; tags: N-terminal polyhistidine and DsRed monomer fusion (pET32a); chain copies: 2; label: CyDye5-dUTP incorporated in the synthesized complementary strand; 3' TTTTT single-stranded linker to array surface; dsDNA, one strand shown
T1 sequence: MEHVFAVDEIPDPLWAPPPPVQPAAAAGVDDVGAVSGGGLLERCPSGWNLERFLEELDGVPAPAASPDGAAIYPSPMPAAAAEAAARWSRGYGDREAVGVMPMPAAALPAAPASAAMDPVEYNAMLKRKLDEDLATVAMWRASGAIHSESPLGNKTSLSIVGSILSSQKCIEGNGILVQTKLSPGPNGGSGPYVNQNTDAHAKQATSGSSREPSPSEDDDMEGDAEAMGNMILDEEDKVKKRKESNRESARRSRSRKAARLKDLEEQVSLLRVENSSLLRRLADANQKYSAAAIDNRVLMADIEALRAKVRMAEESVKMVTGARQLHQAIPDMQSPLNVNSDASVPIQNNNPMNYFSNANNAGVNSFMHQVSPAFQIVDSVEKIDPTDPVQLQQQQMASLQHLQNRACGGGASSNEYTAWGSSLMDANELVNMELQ
Outline: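 Transcription factors were made in E. coli BL21-CodonPlus as N-terminal fusions to a polyhistidine tag and DsRed, then purified on Ni–NTA. After primer extension with Cy5-dUTP and blocking with 2% BSA, a custom Agilent array was exposed for 1 h at 25 °C to 200 nM protein in PBS, 2% BSA, salmon testes DNA and 50 µM zinc acetate. Washed arrays were scanned on an Axon 4000B, and the binding signal is per-feature fluorescence intensity in arbitrary units.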

Sequence | binding signal
AATAGCCGTTAGTGCCACGTGTCGCCTTCCCGTTGGACCGCGGAGTCACCTAGTGCAG | 28700 fluorescence intensity (a.u.)
GCAAATCACATTACCATGCAATCCCCGGCCCATAAGTCATCGGAGTCACCTAGTGCAG | 3140 fluorescence intensity (a.u.)
ACGCTGGGGCAGAAGGCAGGCAAAAGGCACACTCATTCGCCGGAGTCACCTAGTGCAG | 33400 fluorescence intensity (a.u.)
CGCGTGATCGGCCGTCAGATCCACAGCTCCGGCATCATCCCGGAGTCACCTAGTGCAG | 3840 fluorescence intensity (a.u.)
CAGCTACCTCAGCGCCAACCGGACTGGCGCTGAGGTGGGACGGAGTCACCTAGTGCAG | 39200 fluorescence intensity (a.u.)
TCTCTTGTTTGAGTGCTATACATGTGGTCACTTACTCACTCGGAGTCACCTAGTGCAG | 3340 fluorescence intensity (a.u.)
ATTTGTATGAATGCTAACGTCGGCATATGCATGCGCGCAACGGAGTCACCTAGTGCAG | 4100 fluorescence intensity (a.u.)
CTGAATATATGACGTACTTCTTTCTTACCACCTTTGCTTGCGGAGTCACCTAGTGCAG | 6420 fluorescence intensity (a.u.)
GTAGAAGACCGGCGGAAAGTGTGAGGAGGGTGACAAGGGGCGGAGTCACCTAGTGCAG | 3420 fluorescence intensity (a.u.)
GTAGACAGGTTACATCCAGACCATCACCAGTCACTCAGCTCGGAGTCACCTAGTGCAG | 3570 fluorescence intensity (a.u.)
TAGTATATTCCAGTGGATTTATCGCACACAAGCGTAGGAACGGAGTCACCTAGTGCAG | 3560 fluorescence intensity (a.u.)
GCTATCTCTCATGTTTACGTCAAGTTTAATTAACATCCCTCGGAGTCACCTAGTGCAG | 3730 fluorescence intensity (a.u.)
GGAGTACAAGCGACACGTACCCACGTAACATCCATTAAATCGGAGTCACCTAGTGCAG | 4300 fluorescence intensity (a.u.)
CAGCCGGGCCCACGTGTCAGTGAGTGCGTGACGCGTCAGCCGGAGTCACCTAGTGCAG | 15200 fluorescence intensity (a.u.)
ACGCGCGCGCGCGCCAGGTTGATCACCTTGATCCTGCGGCCGGAGTCACCTAGTGCAG | 3250 fluorescence intensity (a.u.)
AAACTGAAGGGTATTTTCACAAAATTTCCTTTTCTTTCTCCGGAGTCACCTAGTGCAG | 6620 fluorescence intensity (a.u.)
ACGCATCCACGCCGTCGCCGTTTTCGCGTCACCCACGAAACGGAGTCACCTAGTGCAG | 3650 fluorescence intensity (a.u.)
CCATGTAGGCATCTCCATCACTTGCCTGACACACCAAGCGCGGAGTCACCTAGTGCAG | 3300 fluorescence intensity (a.u.)
TATTATTATACTGAATAGGGCAACAGGCCCATGGATGAGCCGGAGTCACCTAGTGCAG | 3220 fluorescence intensity (a.u.)
GAGCTTGGCCTTGGCCACCGCCAGATGACGGAGGCAGCGCCGGAGTCACCTAGTGCAG | 4350 fluorescence intensity (a.u.)
GCCTGGCCCAAATTGCGGGAGCTTACGCATGTTGCCCAGGCGGAGTCACCTAGTGCAG | 3550 fluorescence intensity (a.u.)
CTAAAACCACATATAAGGAGTGTCCTGTAGCAAAATTTCCCGGAGTCACCTAGTGCAG | 4200 fluorescence intensity (a.u.)
GGCGGCGGCGGAGAAGGAGAGGCCGCCCGCCGCGTGGCGCCGGAGTCACCTAGTGCAG | 6420 fluorescence intensity (a.u.)

Already shown: an excerpt of the list.
Sequence | binding signal
GCTATCTCTCATGTTTACGTCAAGTTTAATTAACATCCCTCGGAGTCACCTAGTGCAG | 3730 fluorescence intensity (a.u.)
GGAGTACAAGCGACACGTACCCACGTAACATCCATTAAATCGGAGTCACCTAGTGCAG | 4300 fluorescence intensity (a.u.)
